Data as given in PubChem BioAssay AID504786 (Drosophila RNAi Screening Center, 2011).
Assay: 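Knock-downs reducing HIF reporter induction by the iron chelator DFO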 (primary screen). Cell system: Drosophila S2 cells with a stable HIF luciferase reporter. Knock-down reagent: long dsRNA against Drosophila genes, about 0.2 µg dsRNA per well of a 384-well plate. Timing: three days of knock-down, then 20 h of DFO before reading. Treatment: desferrioxamine (DFO) at 100 µM, an iron chelator that mimics hypoxia, for 20 h. Read-out: 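HIF reporter luminescence in cells given 100 µM DFO for 20 h, using the mouse ldh-a hypoxia-response element, scored as per-plate z-scores; higher means greater loss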. Direction: z-score: higher = stronger loss of HIF reporter signal.
In all, the deposit lists about 21,000 reagents; shown is an unselected part of those that have a named target and a result. 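Primary screen; positive scores mean lost reporter signal, so the sign may be inverted from the usual convention.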 A plus sign joins genes that one reagent is predicted to hit.

target	amplicon	z-score, replicate 1	z-score, replicate 2	z-score, replicate 3	z-score, replicate 4
CG15011	DRSC08464	-0.2	-0.3		
Su(var)2-10	DRSC07721	-0.7	-1.3		
CG10936	DRSC05669	-0.9	-0.3		
CG10936	DRSC05670	-0.8	-0.4		
CG10936	DRSC06018	-0.3	-0.3		
cass	DRSC01850	0.3	0.8		
CAH7	DRSC15524	-0.3	-0.2		
UQCR-Q	DRSC10886	0.8	2.4		
CG17977	DRSC06700	-0.3	-0.5		
CG12782	DRSC04127	-0.3	0		
SerRS	DRSC00496	0	-0.7		
Megf8	DRSC03058	-0.3	-0.2		
CG5815	DRSC14135	-0.3	-0.2		
RpL10Aa	DRSC15518	1.7	0.3		
CG17801	DRSC15273	-0.3	-0.1		
osi	DRSC02931	-0.3	-0.1	-0.5	-0.3
CG7943	DRSC16351	-0.3	-0.2		
CG6931	DRSC10750	-0.2	-0.6		
pita	DRSC04006	-0.1	0		
pita	DRSC04435	-0.4	-0.4		
CG8067	DRSC07065	-0.3	0.9		
CG13409	DRSC14585	0.2	-0.1		
CG6435	DRSC06987	-0.3	0		
CG13871	DRSC06430	0.2	0.2		
CG7730	DRSC10909	-0.4	-0.5		
rn	DRSC12500	-0.1	-1.1		
rn	DRSC12543	-0.4	-0.8		
rn	DRSC12544	0	-0.1		
rn	DRSC12546	-0.4	-0.5		
CG14327	DRSC14806	-0.5	0		
CG9444	DRSC16493	-0.3	-0.4		
Ote	DRSC07498	-0.2	-0.4		
Cse1	DRSC03287	2.1	1.7		
f-cup	DRSC14139	0.3	0.6		
dpr19	DRSC02237	-0.1	-0.3		
Clk	DRSC11117	-0.2	0.2		
ebo	DRSC18787	0	-0.2		
Mfe2	DRSC19869	-0.3	-0.6		
ppk10	DRSC01123	0.7	0.2		
TwdlY	DRSC19153	-0.2	-0.2		
snoRNA:Me28S-C3420b + RpS11	DRSC07396	-0.2	-0.3		
CG15877	DRSC08485	-0.1	-0.4		
Eps-15	DRSC04288	-0.3	0.8		
ft	DRSC00819	-0.2	-0.2		
CG14005	DRSC02337	-0.3	-0.6		
dimm	DRSC03100	-0.2	-0.3		
GC	DRSC08396	-0.2	-0.1		
Inx7 + cm	DRSC18753	-0.5	-0.8		
Dph5	DRSC16653	-0.1	0		
CG15343	DRSC18028	-0.3	-0.4		
Nup160 + RfC38	DRSC01997	-0.2	-0.2		
CG11590	DRSC19411	-0.4	-0.8		
CG1635	DRSC15131	-0.1	-0.2		
Ilp2	DRSC10968	0	-0.1		
CG17219	DRSC00486	-0.2	-0.7		
gish	DRSC16154	-0.4	-1.1		
Jra	DRSC07447	-0.3	-0.8		
Schip1	DRSC02851	0	-0.3		
CG40551 (retired record)	DRSC21229	-0.7	-0.2		
CG15754	DRSC19719	0.7	0.2		
CG14042 + SP555	DRSC02367	-0.3	0		
CG14042 + SP555	DRSC03428	-0.3	-0.7		
Fkbp12	DRSC07425	-0.4	-0.8		
CG5664	DRSC11782	-0.7	-0.3		
eEF1delta	DRSC02790	-0.3	-1.1		
Mdr50	DRSC07467	-0.1	-0.1		
Acsx2	DRSC14308	-1.1	-0.8		
CG5644	DRSC10531	-0.3	0.2		
Hsp70Bb + Hsp70Bbb	DRSC15885	-0.3	-0.2		
eag	DRSC19067	-0.3	-0.2		
eag	DRSC20328	-0.3	0.1		
prg	DRSC03324	0	-0.7		
Trim9	DRSC02242	-0.2	0.3		
CG13135	DRSC02232	-0.3	-0.6		
CG6839	DRSC10723	-0.3	-0.3		
Jhbp12	DRSC14621	-0.1	1.2		
CG15930	DRSC18107	-0.3	0		
CG7368	DRSC10826	-0.3	0	1	-0.4
sty	DRSC08737	-0.5	-0.6		
blow	DRSC07586	0.1	0.2		
CG31709	DRSC01081	-0.3	-0.5		
CG12078	DRSC08242	-0.2	-0.6		
Rh6	DRSC16823	0.2	0		
